Reference: PubChem BioAssay AID2073 (Sanford-Burnham Center for Chemical Genomics, 2009)
About 570 (0.2%) of roughly 290,000 compounds were called active. Inconclusive results, whose numbers are uncertain, are shown with a selection of clear calls. Cut-off read from the data, not from the text of the source: active = inhibition mostly above about 51% (no sharp cut-off); inconclusive = no clear call, values can overlap the other calls; inactive = mostly below about 53%.

Sequences of proteins named here, by UniProt entry; tags and fusion partners are left off.
UniProt Q00975, whole entry, looked up: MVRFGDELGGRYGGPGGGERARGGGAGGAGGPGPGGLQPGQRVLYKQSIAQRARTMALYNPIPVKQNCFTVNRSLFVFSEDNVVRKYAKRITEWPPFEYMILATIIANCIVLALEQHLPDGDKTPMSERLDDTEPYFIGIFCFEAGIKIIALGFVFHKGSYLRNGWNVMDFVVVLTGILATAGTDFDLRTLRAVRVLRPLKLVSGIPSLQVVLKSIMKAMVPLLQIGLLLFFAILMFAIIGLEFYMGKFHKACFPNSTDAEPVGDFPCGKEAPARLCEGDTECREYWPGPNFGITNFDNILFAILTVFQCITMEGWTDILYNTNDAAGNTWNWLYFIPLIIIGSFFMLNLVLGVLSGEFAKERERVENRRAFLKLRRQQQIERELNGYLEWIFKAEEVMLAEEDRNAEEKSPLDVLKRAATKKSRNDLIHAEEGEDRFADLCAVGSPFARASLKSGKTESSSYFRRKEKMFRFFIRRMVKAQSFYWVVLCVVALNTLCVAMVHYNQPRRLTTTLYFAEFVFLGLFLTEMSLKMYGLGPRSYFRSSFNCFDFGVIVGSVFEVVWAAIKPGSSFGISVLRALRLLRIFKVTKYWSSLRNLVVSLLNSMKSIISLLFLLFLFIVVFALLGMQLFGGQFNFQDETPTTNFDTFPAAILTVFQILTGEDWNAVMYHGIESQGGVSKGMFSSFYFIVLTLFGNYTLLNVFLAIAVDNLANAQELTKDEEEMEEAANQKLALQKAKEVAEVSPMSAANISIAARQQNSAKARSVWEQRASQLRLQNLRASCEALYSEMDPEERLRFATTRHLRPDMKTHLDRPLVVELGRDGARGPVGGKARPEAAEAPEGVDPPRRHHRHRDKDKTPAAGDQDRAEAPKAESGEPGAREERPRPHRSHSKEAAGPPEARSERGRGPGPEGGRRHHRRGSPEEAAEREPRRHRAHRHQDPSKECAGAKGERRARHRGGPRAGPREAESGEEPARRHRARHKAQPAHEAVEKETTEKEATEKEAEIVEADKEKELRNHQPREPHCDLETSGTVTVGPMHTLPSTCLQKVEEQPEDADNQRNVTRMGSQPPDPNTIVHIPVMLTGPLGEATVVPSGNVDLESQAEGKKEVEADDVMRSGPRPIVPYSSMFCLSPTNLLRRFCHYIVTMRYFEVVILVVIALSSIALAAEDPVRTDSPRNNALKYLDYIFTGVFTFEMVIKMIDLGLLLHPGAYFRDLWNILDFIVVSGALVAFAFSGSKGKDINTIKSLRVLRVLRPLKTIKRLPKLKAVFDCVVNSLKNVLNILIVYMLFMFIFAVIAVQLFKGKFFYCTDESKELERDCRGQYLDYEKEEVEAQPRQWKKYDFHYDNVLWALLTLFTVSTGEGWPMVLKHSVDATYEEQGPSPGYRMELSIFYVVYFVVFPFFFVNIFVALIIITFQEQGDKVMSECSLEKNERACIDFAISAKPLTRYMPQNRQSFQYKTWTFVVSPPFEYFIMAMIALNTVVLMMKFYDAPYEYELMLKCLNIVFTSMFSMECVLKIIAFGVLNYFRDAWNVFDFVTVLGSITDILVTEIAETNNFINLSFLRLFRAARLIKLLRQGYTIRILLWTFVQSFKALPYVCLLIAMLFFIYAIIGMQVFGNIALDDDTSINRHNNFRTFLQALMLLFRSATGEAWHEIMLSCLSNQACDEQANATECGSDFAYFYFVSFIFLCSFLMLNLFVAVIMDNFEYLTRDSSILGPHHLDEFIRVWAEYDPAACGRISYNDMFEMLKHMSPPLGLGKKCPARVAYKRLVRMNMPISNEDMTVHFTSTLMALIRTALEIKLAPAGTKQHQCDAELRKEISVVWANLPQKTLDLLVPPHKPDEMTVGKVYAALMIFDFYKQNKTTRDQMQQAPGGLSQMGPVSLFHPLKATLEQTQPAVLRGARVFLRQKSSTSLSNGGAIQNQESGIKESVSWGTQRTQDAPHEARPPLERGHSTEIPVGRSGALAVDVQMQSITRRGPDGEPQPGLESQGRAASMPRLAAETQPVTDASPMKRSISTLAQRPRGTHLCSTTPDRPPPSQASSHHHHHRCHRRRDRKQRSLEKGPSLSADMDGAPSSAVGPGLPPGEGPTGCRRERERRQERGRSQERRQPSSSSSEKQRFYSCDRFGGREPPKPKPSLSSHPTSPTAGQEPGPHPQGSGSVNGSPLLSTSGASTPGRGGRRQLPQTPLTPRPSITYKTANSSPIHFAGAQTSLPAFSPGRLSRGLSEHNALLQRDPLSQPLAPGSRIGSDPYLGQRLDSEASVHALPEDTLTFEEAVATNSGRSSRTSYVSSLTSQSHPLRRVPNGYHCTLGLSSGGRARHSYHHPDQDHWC

The compounds below were run against Voltage-dependent N-type calcium channel subunit alpha-1B (Homo sapiens) (UniProt Q00975) (assay: disruptors of CaV2.2 binding to Mint1 – biochemical, HTRF (AID 2073)). Conditions: HTRF protein-protein interaction, Mint1-CaV2.2; at 20 µM; hits give high values.
`CN(C)/C=N/c1nc2nccc(-c3ccc(Cl)cc3)n2n1` was tested, and the inhibition was inconclusive: 59.9%.
`CC(=O)c1ccc(N2CCN(C(=O)c3nn(C)c4c3CS(=O)(=O)c3ccccc3-4)CC2)cc1` was tested, and the inhibition was inactive: 9%.
With `NC(=O)c1cc(N2C(=O)C=CC2=O)ccc1Cl` the inhibition was inactive: 47%.
In the case of `Cc1cc(NC(=O)c2cccs2)cc(-c2nc3ncccc3o2)c1O`, the inhibition is reported as inconclusive: 83.3%.
In the case of `O=C(Nc1cccc(Cl)c1N1CCOCC1)c1cccnc1`, the inhibition is reported as inconclusive: 63.1%.
For `CNCC(O)Cn1c2c(c3ccccc31)CCCC2` (configuration not stated), the inhibition was inconclusive: 60.1%.
`O=c1oc2cc(O)ccc2c2ccccc12` was tested, and the inhibition was inconclusive: 61.8%.
In the case of `Cc1ccc(N=C2SC(C(=O)Nc3ccc(OC(F)(F)F)cc3)C(N)=C2C(=O)Nc2c(C)cc(C)cc2C)cc1` (configuration not stated), the inhibition is reported as inconclusive: 89.3%.
In the case of `COc1cc(/C=N/N=C(/C(=O)c2ccccc2)c2ccccc2)cc(OC)c1O`, the inhibition is reported as inactive: -2.5%.
With `Cc1ccc(C2=CSC3=NNC4(CCCCC4)NN23)cc1` the inhibition was inactive: 8.9%.
`COc1ccc(CCN2C(=O)CS/C2=N\NC(=O)c2cccs2)cc1OC` was tested, and the inhibition was inconclusive: 61.1%.
For `O=C(NNc1nc(-c2ccccc2)cs1)c1ccccc1`, the inhibition was inactive: -28.9%.
For `Cc1ccc(NC(=S)N(CCN(C)C)Cc2cc3cc(C)ccc3[nH]c2=O)cc1`, the inhibition was inconclusive: 63%.
With `O=C(O)CCNc1cc(N2CCN(C(=O)c3ccco3)CC2)c2noc3c2c1C(=O)c1ccccc1-3` the inhibition was inconclusive: 54%.
`COc1cccc(-n2c(SCC(=O)Nc3sc4c(c3C(N)=O)CCC4)nc3ccccc3c2=O)c1` was tested, and the inhibition was inconclusive: 50.2%.
With `Cc1cccc(Cc2nnc(CCC(=O)NCc3ccncc3C)o2)c1` the inhibition was inconclusive: 70.4%.
`Cc1cccc(C(=O)NNC(=O)c2ccc(Cl)cc2)c1O` was tested, and the inhibition was inconclusive: 69.7%.
In the case of `COc1ccccc1NC(=O)Nc1ccc(-n2ccc(C(F)(F)F)n2)cc1`, the inhibition is reported as inconclusive: 72.2%.
In the case of `CC1=CC(=O)c2c(O)ccc(O)c2C1=O`, the inhibition is reported as active: 85.1%.
With `Cc1nn(Cc2ccccc2Cl)c(C)c1NC(=O)CSc1n[nH]c(C)c1[N+](=O)[O-]` the inhibition was inconclusive: 62.4%.
`CCn1c(COc2ccc(Cl)c(C)c2)nnc1SCC(=O)N1CCCC1` was tested, and the inhibition was inconclusive: 59.6%.
`CN(C)c1ccc(N/C(=N\S(=O)(=O)c2cccs2)c2ccccc2)cc1` was tested, and the inhibition was inconclusive: 83.9%.
In the case of `COC(=O)c1cc(C)nc(N)c1C#N`, the inhibition is reported as inconclusive: 68.5%.
`CC12CN3CC(C)(CN(C1)C3c1cc(Br)ccc1O)C2=O` (configuration not stated) was tested, and the inhibition was inconclusive: 73.8%.
With `Cc1ccc(/C(C#N)=C\c2ccc(N3CCOCC3)o2)cc1` the inhibition was inactive: 43.4%.
With `COc1ccc(C2=NOC(C(=O)NC(C)(C)C)C2)cc1` (configuration not stated) the inhibition was inconclusive: 71.7%.
In the case of `O=C1c2ccccc2C(=O)N1c1cc([N+](=O)[O-])ccn1`, the inhibition is reported as inconclusive: 85.4%.
For `COc1ccc(CNC(=O)C(C)OC(=O)c2cccn2C)cc1` (configuration not stated), the inhibition was inactive: -0.9%.
In the case of `NC(=O)C1=C[C@@H](c2ccc(Br)cc2)C[C@@H](OCc2ccc(CO)cc2)O1`, the inhibition is reported as inconclusive: 61.6%.
For `COc1ccc(NC(=O)CSc2nncn2C)cc1`, the inhibition was inconclusive: 53.7%.
For `CCOc1ccc(C(CCc2ccccc2)NC(=O)c2ccccc2F)cc1OCC` (configuration not stated), the inhibition was inactive: 5.7%.
`CCC(C)NC(=S)N(CCc1ccccc1)Cc1cc2cc(OC)c(OC)cc2[nH]c1=O` (configuration not stated) was tested, and the inhibition was inactive: 7.1%.
In the case of `CCN(CC)C(=O)CN1CCN(Cc2ccc3c(c2)OCO3)CC1`, the inhibition is reported as inconclusive: 66.9%.
In the case of `CCN1CCN(CCCNC(=O)Cn2nc(C)n3nc(-c4ccccc4)cc3c2=O)CC1`, the inhibition is reported as inactive: 12.1%.
For `COc1ccc(Nc2nc(-c3c(C)nc4ncccn34)cs2)cc1`, the inhibition was active: 55.6%.
In the case of `S=c1nc[nH]c2c1[nH]c1ccc(Cl)cc12`, the inhibition is reported as inconclusive: 55.1%.
In the case of `CCN(CC)Cc1c(O)ccc2c(=O)c(Oc3ccccc3OC)coc12`, the inhibition is reported as inconclusive: 61.5%.
In the case of `CCC(C)COC(c1ccccc1)(c1ccccc1)C(Oc1nc(C)cc(C)n1)C(=O)O` (configuration not stated), the inhibition is reported as inconclusive: 69.7%.
`Cc1ccc(NC(=O)c2cc3cccc([N+](=O)[O-])c3[nH]2)cc1` was tested, and the inhibition was inconclusive: 58.3%.
For `CCOC(=O)Cc1cnc(NC(=O)CSc2nc(N)cc(N)n2)s1`, the inhibition was inconclusive: 74.5%.
With `COc1ccc(-c2cc(C(F)F)n3ncc(C(=O)N4CCc5ccccc5C4)c3n2)cc1` the inhibition was inconclusive: 51.8%.
With `CC(NCC(O)c1ccc([N+](=O)[O-])cc1)C12CC3CC(CC(C3)C1)C2` (configuration not stated) the inhibition was inactive: 0.6%.
In the case of `Cc1ccc(C(=O)NC=C(Cl)Cl)cc1`, the inhibition is reported as inconclusive: 62.3%.
In the case of `Cc1ccc(C)c(NC(=O)CCN2CCCC(C)C2)c1` (configuration not stated), the inhibition is reported as inconclusive: 59.9%.
For `CCn1c(=S)[nH]c2cc(C(=O)OC)ccc2c1=O`, the inhibition was inconclusive: 63.5%.
In the case of `O=C(COC(=O)c1ccc(O)cc1)Nc1cccc(S(=O)(=O)NC2=NCCCCC2)c1`, the inhibition is reported as inactive: -9.8%.
`O=c1c2ccccc2c(C=Nc2cccc(S(=O)(=O)NCc3ccco3)c2)c(O)n1-c1ccc(Cl)cn1` was tested, and the inhibition was inconclusive: 58.5%.
With `CC(=O)c1ccc(N2CCN(C(=O)c3ccc(Cl)c(NC4=NC5CS(=O)(=O)CC5S4)c3)CC2)cc1` (configuration not stated) the inhibition was inactive: 3.4%.
With `Cc1cc(N2C(=O)C(O)=C(C(=O)c3cccs3)C2c2ccc(F)cc2)no1` (configuration not stated) the inhibition was inconclusive: 51.7%.
In the case of `COc1ccc(S(=O)(=O)N(C)C2CCS(=O)(=O)C2)cc1OC` (configuration not stated), the inhibition is reported as inactive: 4.6%.
In the case of `Oc1ccc(N=Cc2c(O)ccc3ccccc23)cc1`, the inhibition is reported as inconclusive: 67.9%.
With `Cc1nonc1C1CCCN1Cc1cn[nH]c1-c1ccc2c(c1)OCO2` (configuration not stated) the inhibition was inactive: 6.8%.
With `COc1cccc2sc(Nc3nnc(-c4ccccc4Cl)o3)nc12` the inhibition was inconclusive: 77.5%.
For `CC(=O)c1ccc(NS(=O)(=O)Cc2ccccc2)cc1`, the inhibition was inconclusive: 77.5%.
For `COC(=O)C1=C(C(=O)OC)[C@@H]2N(Cc3ccccc3)c3ccccc3[C@@]23C[C@@H](C(=O)OC)N(C(C)=O)C3=N1`, the inhibition was inconclusive: 67.5%.
`N#Cc1c(-c2cccc(Br)c2)cc(-c2ccco2)[nH]c1=O` was tested, and the inhibition was active: 53.9%.
For `COc1ccc(CN2CCCC(N3CCN(c4ccc(OC)cc4)CC3)C2)cc1` (configuration not stated), the inhibition was inconclusive: 57.1%.
